These results are taken from PMC3398014.

The chains behind the UniProt entries cited, without tags or fusion partners. Residues count along the entry.
UniProt Q61526, residues 20-1339: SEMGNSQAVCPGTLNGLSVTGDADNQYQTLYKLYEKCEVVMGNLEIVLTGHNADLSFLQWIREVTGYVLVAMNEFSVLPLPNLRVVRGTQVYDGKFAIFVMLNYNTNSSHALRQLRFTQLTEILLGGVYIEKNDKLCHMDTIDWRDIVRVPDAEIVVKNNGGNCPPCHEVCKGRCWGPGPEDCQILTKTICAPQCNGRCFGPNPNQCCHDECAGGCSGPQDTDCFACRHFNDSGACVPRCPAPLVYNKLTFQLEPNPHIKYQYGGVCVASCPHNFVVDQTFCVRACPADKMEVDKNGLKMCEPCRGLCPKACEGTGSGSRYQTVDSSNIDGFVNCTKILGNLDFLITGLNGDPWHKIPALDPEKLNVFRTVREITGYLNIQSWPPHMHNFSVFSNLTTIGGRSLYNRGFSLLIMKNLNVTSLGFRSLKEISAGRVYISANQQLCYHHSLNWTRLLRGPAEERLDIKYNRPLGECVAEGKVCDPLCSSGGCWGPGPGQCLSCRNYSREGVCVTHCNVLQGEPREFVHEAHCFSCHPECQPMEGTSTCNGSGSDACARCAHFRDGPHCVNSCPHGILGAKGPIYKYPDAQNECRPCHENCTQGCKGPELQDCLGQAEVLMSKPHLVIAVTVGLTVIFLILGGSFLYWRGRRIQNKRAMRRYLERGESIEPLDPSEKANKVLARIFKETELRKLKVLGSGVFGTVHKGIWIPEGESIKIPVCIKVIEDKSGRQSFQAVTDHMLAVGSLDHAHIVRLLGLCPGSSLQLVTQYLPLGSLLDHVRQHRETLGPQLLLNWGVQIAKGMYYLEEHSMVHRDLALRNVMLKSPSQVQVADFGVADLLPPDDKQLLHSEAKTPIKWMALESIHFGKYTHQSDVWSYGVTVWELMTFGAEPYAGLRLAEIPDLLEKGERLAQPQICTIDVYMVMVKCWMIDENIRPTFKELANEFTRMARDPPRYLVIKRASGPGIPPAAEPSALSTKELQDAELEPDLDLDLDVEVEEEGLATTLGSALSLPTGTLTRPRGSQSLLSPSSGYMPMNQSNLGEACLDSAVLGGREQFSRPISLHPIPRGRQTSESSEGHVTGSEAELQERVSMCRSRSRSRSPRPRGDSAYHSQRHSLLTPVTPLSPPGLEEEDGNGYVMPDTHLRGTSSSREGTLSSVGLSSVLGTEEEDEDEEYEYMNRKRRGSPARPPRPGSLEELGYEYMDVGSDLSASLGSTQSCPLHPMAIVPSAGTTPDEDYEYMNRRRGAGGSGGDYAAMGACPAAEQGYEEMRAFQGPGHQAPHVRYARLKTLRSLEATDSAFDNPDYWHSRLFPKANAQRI
UniProt P21860, residues 20-1342: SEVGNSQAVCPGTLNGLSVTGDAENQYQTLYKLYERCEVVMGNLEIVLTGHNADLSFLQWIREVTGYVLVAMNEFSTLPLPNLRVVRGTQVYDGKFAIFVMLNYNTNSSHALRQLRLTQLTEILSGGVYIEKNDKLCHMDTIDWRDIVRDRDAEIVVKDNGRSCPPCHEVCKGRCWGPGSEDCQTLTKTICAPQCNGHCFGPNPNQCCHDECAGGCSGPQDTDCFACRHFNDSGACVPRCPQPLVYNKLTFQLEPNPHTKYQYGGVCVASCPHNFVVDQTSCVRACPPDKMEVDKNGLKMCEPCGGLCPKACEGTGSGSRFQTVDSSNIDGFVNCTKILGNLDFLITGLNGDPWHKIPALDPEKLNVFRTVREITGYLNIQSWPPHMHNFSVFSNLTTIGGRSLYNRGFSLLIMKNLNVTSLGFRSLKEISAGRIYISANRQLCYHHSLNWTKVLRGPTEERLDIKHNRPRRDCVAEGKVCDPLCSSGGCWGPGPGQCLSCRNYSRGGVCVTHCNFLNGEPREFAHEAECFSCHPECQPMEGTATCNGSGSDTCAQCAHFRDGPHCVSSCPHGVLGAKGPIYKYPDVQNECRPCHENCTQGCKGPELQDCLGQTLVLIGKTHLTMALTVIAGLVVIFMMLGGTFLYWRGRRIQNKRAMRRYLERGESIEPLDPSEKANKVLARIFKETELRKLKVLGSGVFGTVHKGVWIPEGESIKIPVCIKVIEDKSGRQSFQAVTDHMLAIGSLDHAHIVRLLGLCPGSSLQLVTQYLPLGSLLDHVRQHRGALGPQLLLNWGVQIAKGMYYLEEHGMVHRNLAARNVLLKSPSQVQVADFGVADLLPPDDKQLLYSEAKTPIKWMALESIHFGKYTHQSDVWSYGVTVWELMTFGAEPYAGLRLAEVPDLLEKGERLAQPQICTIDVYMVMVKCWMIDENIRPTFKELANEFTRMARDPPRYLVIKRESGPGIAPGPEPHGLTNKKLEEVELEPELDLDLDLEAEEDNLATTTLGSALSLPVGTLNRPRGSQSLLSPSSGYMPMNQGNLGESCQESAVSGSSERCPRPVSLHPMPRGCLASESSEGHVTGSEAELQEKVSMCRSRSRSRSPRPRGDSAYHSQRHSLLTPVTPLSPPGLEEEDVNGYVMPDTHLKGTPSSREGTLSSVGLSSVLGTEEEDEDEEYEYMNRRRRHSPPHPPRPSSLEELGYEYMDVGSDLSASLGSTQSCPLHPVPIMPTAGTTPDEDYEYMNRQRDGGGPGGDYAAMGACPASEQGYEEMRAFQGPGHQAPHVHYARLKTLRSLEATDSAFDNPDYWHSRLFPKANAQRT
UniProt P06494, residues 23-1257: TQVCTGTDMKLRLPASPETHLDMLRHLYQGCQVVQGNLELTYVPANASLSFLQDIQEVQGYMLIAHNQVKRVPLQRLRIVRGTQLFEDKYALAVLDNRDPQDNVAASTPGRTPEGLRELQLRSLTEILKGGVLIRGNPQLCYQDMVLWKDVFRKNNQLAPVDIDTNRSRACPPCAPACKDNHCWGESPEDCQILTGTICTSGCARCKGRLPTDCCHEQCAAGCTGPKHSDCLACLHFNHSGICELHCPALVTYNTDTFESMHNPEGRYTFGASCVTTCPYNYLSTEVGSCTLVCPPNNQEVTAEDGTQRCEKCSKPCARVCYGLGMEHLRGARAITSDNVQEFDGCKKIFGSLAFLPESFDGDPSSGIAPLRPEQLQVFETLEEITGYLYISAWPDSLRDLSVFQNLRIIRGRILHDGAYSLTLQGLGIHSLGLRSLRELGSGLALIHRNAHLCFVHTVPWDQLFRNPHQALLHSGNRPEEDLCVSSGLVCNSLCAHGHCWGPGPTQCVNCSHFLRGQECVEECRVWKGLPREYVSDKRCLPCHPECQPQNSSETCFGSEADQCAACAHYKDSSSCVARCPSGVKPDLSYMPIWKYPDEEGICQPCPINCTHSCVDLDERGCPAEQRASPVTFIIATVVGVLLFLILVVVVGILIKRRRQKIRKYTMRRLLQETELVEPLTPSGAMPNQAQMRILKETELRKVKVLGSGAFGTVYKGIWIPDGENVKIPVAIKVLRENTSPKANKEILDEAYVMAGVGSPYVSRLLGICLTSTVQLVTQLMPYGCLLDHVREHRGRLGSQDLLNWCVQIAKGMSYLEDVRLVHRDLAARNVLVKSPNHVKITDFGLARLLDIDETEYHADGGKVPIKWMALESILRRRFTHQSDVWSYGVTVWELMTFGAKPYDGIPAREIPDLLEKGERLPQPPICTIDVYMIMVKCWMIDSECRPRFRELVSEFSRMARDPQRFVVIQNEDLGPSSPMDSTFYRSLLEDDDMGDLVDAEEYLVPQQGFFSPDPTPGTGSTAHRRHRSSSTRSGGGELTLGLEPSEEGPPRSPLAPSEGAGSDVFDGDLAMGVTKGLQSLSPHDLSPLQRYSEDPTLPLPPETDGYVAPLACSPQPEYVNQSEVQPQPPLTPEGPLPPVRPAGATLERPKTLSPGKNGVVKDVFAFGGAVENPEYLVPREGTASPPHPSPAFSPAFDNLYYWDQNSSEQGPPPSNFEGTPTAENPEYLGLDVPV
UniProt Q62799, residues 20-1339: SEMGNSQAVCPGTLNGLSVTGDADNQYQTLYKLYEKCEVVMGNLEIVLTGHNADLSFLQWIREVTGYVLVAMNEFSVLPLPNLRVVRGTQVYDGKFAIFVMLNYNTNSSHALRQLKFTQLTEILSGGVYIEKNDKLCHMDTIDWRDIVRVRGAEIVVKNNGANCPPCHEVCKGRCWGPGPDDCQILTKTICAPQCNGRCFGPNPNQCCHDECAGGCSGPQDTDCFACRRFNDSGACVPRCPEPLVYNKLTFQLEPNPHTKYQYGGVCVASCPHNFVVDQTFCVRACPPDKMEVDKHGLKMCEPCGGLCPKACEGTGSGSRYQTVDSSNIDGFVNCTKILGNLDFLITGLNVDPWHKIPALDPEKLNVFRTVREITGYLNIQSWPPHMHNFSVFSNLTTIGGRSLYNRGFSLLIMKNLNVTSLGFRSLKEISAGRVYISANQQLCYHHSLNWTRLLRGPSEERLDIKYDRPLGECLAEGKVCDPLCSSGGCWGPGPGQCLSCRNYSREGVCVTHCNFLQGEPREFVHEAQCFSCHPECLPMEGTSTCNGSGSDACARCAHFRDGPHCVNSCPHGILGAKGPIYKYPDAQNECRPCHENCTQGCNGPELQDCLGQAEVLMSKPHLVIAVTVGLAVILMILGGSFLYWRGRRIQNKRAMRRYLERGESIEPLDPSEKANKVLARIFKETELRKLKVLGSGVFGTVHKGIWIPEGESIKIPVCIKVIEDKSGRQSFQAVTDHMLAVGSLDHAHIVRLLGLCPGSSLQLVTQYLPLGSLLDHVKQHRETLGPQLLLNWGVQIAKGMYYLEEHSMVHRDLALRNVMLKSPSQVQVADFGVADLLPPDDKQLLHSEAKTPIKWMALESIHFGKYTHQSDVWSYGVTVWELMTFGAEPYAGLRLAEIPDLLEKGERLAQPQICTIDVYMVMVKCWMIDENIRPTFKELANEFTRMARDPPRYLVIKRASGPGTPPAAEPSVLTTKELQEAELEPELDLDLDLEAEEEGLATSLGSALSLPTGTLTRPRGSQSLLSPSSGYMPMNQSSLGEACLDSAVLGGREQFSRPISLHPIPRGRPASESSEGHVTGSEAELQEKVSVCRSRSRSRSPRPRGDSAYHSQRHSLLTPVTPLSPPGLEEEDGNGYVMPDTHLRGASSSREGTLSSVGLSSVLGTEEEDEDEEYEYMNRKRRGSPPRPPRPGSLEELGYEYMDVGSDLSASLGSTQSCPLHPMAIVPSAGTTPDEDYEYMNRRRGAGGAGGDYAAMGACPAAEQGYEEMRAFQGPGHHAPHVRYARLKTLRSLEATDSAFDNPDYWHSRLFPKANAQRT
UniProt Q05695, residues 20-1259: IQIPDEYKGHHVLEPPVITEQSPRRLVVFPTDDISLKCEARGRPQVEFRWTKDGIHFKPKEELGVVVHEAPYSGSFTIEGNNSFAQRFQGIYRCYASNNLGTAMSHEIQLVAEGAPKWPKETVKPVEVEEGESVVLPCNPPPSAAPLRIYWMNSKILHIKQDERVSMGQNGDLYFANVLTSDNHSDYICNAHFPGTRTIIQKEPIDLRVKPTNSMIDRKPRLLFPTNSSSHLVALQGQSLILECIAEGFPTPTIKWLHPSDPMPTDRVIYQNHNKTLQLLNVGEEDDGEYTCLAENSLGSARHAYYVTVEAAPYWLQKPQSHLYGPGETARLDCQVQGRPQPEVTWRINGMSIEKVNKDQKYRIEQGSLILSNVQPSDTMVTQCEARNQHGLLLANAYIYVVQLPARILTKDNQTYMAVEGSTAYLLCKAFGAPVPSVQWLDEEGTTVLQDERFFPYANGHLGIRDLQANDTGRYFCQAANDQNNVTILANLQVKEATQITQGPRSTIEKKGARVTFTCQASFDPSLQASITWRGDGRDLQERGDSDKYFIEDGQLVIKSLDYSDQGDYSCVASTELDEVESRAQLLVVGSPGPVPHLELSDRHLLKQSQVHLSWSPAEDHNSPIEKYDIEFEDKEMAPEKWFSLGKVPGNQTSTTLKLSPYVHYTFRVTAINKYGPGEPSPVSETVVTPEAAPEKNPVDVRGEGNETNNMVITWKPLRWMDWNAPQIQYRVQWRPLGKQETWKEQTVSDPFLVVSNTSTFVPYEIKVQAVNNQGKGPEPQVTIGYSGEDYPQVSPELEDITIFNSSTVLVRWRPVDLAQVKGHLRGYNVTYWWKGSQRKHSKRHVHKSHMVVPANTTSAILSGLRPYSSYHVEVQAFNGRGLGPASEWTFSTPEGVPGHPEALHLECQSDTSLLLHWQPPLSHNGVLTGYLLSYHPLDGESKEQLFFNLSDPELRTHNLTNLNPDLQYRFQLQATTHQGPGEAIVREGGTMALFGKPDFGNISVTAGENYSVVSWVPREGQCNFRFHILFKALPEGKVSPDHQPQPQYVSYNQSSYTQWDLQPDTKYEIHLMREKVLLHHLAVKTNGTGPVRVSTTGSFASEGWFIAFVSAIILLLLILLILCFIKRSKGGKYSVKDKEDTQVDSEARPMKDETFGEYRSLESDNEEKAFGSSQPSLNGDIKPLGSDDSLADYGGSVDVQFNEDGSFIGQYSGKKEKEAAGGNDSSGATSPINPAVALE

No constants are given. Whether binding was seen depends on the method and setting. Binding seen in cells or lysates may run through a third protein. Some entries that bind do so weakly or less than the wild type.

For assay [1], the target named is erbB3 of E14 mouse brain (mouse (endogenous in E14 mouse brain)) (UniProt Q61526). As to the kind of experiment: proximity ligation; Duolink In Situ on E14 mouse brain free-floating sections; mouse anti-L1CAM and rabbit anti-erbB3.
Assay [2] deals with human L1CAM (isoform 2) (human) (UniProt P32004). As to the kind of experiment: co-IP; HEK293 cells co-transfected; lysis in 50 mM Tris, 150 mM NaCl, 2 mM EDTA, 0.5% Triton X-100; antibody-loaded protein A-Sepharose, 3 h on ice; western blot of the partner; done in both directions.
Assay [3] addresses erbB3 receptor (UniProt P21860). Nature of the assay: proximity ligation; Duolink In Situ on fixed HEK293 cells transfected with pcDNA3-L1CAM, pcDNA3-erbB3 and pEGFP; mouse anti-L1CAM and rabbit anti-erbB3; non-transfected cells as negative control.
In another assay the target is erbB2 receptor (UniProt P04626). Nature of the assay: co-IP; HEK293 cells co-transfected; lysis in 50 mM Tris, 150 mM NaCl, 2 mM EDTA, 0.5% Triton X-100; antibody-loaded protein A-Sepharose, 3 h on ice; western blot of the partner; done in both directions.
Assay [4] addresses erbB3 receptor (UniProt P21860). The assay is described as above.
Assay [5] concerns the target human EGFR with a myc epitope (human) (UniProt P00533). The description is as above.
In assay [6] the target is erbB2 receptor of P2 rat brain (rat (endogenous in P2 rat brain)) (UniProt P06494). Nature of the assay: co-IP; whole brains of P2 rats, extract cross-linked with DTBP (3 mM, 45 min) before IP; IP with anti-erbB3 or anti-erbB2, blot with anti-L1CAM; non-specific anti-IgG as control.
The target of assay [7] is erbB3 of P2 rat brain (rat (endogenous in P2 rat brain)) (UniProt Q62799). The assay is described as above.

In the case of “L1CAM of E14 mouse brain (from UniProt P11627 20-1260)”, the binding entry in assay [1] was “binds”.
As for “erbB3 receptor (from UniProt P21860 20-1342)”, in assay [2], the binding entry is given as “binds”.
Consider “human L1CAM (isoform 2) (from UniProt P32004-2 20-1253)”, for which the binding result (with erbB3 receptor [3]; with erbB2 receptor; with erbB3 receptor [4]; in assay [5]) was “binds” each time.
In the case of “erbB2 receptor (from UniProt P04626 23-1255)”, the binding result in assay [2] was “binds”.
As for “human EGFR with a myc epitope (from UniProt P00533 25-1210) (receptor)”, the binding entry in assay [2] is reported as “binds”.
On to “endogenously expressed L1CAM of P2 rat brain (from UniProt Q05695 20-1259)”, for which the binding result in assay [6] and in assay [7] was “binds” throughout.
